Laboratory results published in doi:10.1101/2020.09.10.291799.
These are yes or no findings as the source states them, for the method shown. Binding seen in cells or lysates may run through a third protein. Some binding calls cover weakened binding; strength is not graded here.

Sequences of proteins named here, by UniProt entry; tags and fusion partners are left off.
UniProt Q04207: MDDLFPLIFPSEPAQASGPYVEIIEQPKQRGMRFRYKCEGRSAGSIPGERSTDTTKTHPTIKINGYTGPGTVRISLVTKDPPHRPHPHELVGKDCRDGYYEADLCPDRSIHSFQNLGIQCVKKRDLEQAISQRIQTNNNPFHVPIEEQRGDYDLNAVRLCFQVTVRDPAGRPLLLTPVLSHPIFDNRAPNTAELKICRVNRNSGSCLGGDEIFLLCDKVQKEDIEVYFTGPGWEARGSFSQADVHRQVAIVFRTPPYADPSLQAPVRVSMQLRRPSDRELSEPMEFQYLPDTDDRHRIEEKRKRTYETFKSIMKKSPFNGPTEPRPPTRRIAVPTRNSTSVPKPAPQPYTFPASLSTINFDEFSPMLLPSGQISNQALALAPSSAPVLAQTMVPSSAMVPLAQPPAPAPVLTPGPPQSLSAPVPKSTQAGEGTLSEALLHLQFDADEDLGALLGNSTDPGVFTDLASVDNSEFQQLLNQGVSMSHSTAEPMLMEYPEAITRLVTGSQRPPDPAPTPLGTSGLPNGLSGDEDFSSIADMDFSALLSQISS
UniProt E9Q2Z1: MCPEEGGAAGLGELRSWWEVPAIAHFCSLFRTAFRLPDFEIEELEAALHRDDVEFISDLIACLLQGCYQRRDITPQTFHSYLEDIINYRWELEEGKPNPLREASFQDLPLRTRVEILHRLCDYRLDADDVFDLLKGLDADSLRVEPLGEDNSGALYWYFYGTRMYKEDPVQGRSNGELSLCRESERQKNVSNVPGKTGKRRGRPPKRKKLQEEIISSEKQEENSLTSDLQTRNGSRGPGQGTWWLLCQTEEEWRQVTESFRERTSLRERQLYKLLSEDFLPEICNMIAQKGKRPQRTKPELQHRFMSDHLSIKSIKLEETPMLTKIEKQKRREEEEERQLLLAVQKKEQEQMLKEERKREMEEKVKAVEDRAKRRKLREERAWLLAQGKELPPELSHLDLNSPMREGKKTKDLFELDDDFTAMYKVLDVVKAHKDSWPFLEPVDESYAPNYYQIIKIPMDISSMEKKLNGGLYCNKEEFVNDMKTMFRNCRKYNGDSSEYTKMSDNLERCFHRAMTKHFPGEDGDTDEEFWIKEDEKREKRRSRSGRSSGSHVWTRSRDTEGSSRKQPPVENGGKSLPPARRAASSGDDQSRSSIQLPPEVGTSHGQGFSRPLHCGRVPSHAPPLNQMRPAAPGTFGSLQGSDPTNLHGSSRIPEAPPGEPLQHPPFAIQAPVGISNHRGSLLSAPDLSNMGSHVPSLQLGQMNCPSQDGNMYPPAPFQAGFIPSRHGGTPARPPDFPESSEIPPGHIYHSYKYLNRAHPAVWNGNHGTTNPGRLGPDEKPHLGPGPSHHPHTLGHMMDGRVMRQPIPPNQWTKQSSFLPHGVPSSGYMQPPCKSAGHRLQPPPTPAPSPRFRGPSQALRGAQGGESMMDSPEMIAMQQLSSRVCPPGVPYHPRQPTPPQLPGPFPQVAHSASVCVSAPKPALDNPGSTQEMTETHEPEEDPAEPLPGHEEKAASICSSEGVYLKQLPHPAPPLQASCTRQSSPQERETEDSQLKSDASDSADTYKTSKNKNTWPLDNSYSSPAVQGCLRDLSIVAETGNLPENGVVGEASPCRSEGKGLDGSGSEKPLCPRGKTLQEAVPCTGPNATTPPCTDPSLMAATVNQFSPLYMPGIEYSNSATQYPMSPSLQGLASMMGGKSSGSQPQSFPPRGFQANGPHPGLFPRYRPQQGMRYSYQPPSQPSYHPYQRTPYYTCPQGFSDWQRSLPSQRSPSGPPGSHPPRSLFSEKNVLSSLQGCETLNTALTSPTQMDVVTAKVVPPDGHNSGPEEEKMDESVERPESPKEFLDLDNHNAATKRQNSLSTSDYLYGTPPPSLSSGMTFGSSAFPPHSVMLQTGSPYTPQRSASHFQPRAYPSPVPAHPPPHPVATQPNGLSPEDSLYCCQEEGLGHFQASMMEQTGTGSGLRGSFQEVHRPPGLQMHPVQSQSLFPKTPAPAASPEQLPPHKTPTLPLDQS
UniProt Q9BXF3: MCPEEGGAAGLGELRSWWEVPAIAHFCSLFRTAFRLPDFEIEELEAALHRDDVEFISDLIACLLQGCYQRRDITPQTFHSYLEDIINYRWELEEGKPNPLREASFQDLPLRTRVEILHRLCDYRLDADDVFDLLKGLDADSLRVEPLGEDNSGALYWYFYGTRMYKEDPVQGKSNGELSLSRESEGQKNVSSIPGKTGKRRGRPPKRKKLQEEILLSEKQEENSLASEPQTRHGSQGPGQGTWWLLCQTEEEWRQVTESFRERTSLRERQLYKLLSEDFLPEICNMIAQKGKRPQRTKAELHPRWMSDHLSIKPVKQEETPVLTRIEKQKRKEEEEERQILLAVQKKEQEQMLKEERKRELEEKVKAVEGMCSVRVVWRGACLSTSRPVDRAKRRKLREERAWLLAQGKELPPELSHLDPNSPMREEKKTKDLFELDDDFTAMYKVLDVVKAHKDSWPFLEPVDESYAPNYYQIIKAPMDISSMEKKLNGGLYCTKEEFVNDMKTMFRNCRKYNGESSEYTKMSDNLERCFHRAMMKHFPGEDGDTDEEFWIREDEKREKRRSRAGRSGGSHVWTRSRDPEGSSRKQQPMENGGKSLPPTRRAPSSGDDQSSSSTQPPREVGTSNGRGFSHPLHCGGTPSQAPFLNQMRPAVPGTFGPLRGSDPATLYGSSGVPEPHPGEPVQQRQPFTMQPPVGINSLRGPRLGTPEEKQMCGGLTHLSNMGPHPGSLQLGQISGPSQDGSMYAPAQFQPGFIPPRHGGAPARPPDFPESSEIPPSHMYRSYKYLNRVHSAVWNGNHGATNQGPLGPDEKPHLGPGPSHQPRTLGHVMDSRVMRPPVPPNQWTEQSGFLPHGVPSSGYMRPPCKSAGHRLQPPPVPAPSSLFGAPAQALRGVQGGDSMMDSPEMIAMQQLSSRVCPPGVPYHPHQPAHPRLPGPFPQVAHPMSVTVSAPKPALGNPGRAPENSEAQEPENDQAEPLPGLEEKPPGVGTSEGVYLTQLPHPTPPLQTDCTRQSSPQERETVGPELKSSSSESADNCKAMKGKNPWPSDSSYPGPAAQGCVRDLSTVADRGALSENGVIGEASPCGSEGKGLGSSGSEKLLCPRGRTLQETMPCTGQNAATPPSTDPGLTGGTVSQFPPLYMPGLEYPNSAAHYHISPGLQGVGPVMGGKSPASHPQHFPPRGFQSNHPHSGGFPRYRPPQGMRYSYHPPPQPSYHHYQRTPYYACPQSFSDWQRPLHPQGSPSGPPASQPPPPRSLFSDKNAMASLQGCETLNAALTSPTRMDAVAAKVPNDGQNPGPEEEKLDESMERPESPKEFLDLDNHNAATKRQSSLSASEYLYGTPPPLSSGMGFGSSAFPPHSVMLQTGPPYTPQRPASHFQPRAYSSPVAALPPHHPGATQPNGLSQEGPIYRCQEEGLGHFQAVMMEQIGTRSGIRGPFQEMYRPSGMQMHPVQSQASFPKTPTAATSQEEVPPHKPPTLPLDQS

Key:
[1] = target: RELA/p65, endogenous in 4T1 cells (mouse (endogenous in 4T1)) (UniProt Q04207); test: co-IP
[2] = target: FLAG-RELA (RelA cFlag pcDNA3) (UniProt Q04207); test: co-IP

| binding [2] | Substance | binding [1] |
| --- | --- | --- |
| – | CECR2 (Cat eye syndrome chromosome region candidate 2), endogenous in 4T1 cells (from UniProt E9Q2Z1 1-1453) | binds |
| binds | GFP-CECR2 (from UniProt Q9BXF3 1-1484) | – |
